Drawing on publication PMC5996148, this text covers binding signal for one sequence.

Some of the results follow. For some assays here: The exact form of the protein is not confirmed.

Experiment in all cases: protein microarray (ProtoArray v5.0), streptavidin-Alexa Fluor 647
Holding throughout (conditions): 3'-biotin; 20 mM Tris (pH 7.5), 5 mM MgCl2, 100 mM KCl, 0.1% Tween-20, A/T-rich and random oligonucleotide blockers; temperature not stated; high values mean tight binding

The test system of assay [1] is Vesicle-trafficking protein SEC22b (human).
In assay [2] the test system is Visinin-like protein 1 (human).
The test system of assay [3] is Voltage-dependent L-type calcium channel subunit beta-1 (human).
Assay [4] deals with WAS protein family homolog 1 (human).
Assay [5] has as its target T1, WBP2 (UniProt Q969T9).
T1 sequence: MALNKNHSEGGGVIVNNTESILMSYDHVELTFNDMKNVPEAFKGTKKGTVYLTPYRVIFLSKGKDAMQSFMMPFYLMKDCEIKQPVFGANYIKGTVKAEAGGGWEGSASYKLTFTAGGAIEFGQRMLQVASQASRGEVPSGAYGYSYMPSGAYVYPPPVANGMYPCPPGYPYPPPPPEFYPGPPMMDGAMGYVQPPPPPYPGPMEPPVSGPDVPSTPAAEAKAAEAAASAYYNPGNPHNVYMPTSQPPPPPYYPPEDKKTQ

Assay [6] deals with WD repeat-containing protein 55 (human).
Assay [7] relates to WDFY1 (human).
Assay [8] has as its system WDR1 (human).
The target of assay [9] is T2, WDR18 (UniProt Q9BV38).
T2 sequence: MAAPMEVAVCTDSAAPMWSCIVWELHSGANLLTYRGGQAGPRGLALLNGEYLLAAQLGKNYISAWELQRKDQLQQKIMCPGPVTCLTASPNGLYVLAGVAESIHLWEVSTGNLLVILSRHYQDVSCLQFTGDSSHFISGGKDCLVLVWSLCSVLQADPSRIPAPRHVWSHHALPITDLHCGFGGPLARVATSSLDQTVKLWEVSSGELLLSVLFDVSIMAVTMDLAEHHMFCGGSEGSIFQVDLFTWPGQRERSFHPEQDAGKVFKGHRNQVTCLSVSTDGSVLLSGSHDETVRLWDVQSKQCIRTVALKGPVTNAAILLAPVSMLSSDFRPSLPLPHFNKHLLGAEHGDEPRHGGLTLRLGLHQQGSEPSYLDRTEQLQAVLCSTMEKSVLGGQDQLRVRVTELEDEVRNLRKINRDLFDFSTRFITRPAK

Assay [10] has as its system WDR24 (human).
In assay [11] the test system is WDR34 (human).
Assay [12] has as its system WDR4 (human).
In assay [13] the test system is WFDC6 (human).
Assay [14] has as its target T3, WHSC1 (UniProt O96028).
T3 sequence: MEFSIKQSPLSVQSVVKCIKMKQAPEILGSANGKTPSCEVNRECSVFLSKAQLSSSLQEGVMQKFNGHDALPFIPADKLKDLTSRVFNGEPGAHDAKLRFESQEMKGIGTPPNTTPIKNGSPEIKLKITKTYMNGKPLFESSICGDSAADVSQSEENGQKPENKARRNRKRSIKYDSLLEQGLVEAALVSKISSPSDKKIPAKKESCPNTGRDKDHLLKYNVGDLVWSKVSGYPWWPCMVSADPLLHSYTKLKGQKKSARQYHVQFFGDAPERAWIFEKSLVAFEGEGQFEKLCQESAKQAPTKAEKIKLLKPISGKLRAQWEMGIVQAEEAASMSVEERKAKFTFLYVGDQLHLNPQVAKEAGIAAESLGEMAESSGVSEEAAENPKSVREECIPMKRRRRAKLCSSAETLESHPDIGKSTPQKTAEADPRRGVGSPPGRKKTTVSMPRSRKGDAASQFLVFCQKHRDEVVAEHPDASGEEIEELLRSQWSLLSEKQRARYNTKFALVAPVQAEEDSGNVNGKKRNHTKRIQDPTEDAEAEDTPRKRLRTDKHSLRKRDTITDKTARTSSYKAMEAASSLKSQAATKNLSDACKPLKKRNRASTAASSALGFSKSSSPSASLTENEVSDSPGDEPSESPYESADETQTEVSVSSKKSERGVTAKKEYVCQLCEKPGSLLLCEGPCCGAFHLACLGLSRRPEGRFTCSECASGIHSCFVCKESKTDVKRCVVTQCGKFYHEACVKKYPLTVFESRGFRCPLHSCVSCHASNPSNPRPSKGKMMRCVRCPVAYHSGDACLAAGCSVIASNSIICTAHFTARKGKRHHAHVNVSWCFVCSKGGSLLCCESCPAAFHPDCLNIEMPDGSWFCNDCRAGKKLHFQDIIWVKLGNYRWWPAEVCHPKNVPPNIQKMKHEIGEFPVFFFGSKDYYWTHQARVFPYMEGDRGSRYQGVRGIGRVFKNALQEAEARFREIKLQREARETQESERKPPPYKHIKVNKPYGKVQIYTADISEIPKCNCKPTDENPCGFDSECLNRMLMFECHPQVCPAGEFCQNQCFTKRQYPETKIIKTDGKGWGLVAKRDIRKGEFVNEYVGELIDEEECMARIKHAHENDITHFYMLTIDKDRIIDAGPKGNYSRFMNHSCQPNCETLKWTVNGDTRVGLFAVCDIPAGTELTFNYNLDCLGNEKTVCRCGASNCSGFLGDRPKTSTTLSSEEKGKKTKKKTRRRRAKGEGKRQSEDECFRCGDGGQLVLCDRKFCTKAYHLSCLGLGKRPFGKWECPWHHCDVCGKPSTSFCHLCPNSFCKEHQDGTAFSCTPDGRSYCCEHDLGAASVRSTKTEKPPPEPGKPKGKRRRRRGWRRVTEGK

Assay [15] concerns WTAP (human).
Assay [16] concerns Wilms tumor-associated protein (human).
The test system of assay [17] is YKT6 (human).
The test system of assay [18] is YSK4 (human).
In assay [19] the test system is ZAP70 (human).
In assay [20] the test system is ZBED2 (human).

For the sequence “GGGGACAGGGGTATGGGGAGGGG [G4-3 biotinylated (CtG)]”, the binding signal was -0.331 z-score in assay [1]; -0.334 z-score in [2]; 3.14 z-score in [3]; -0.349 z-score in [4]; -0.332 z-score in [5]; -0.322 z-score in [6]. For the same sequence, the binding signal is -0.321 z-score in assay [7]; -0.318 z-score in assay [8]; -0.328 z-score in assay [9]; -0.314 z-score in [10]; -0.333 z-score in assay [11]; -0.326 z-score in assay [12]. Besides, the binding signal was -0.338 z-score in [13]; 3.27 z-score in assay [14]; -0.328 z-score in [15]; 4.3 z-score in assay [16]; -0.337 z-score in assay [17]; -0.327 z-score in assay [18]. Also, the binding signal in assay [19] is -0.295 z-score; in [20], -0.32 z-score.
